The results in this text go back to PubChem BioAssay AID312 (DTP/NCI, 2004).

The test concerns BDF1 mice, C1498 leukemia ip, median survival T/C. Briefly: NCI In Vivo Anticancer Drug Screen. Data for tumor model C1498 Myeloid Leukemia (intraperitoneal) in B6D2F1 (BDF1) mice. The note with it: T/C endpoint: median survival time, schedule: Q01DX010 (ip), higher T/C = longer survival. The method, then: The antitumor activity of compounds was measured in mice bearing transplantable tumors. Survival or tumor size were measured and the results are expressed as the measurement made in the treated group (T) divided by the measurement made in the vehicle treated control group (C). The tumor model used in this assay is C1498 Myeloid Leukemia (intraperitoneal) in B6D2F1 (BDF1) mice

The mark [1] stands for this setting: dose: 8.0 mg/kg/injection, vehicle: saline.

The list is a part of this screen's results and no random one: it gathers tests that were run many times, whatever their T/C, doses with no T/C, and many T/C values between a quarter and a half above the control. Other doses and runs of a compound stand elsewhere. T/C: endpoint of the treated group in % of that of the vehicle group. Some entries give survivors of the animals treated and no T/C: the source holds a T/C of zero for them, seemingly a mark for toxic or unscored doses. Some doses without a T/C left all or most animals alive at the check, yet need not have been tolerated: survival well below the control is almost never listed, so the zero probably covers shortened survival too. Counts of survivors are from the toxicity check (mostly the fifth day) where no day follows; animals may have died later. Schedules are NCI's codes, taken here to give the interval after Q, in days (D) or hours (H), and the number of doses after X. For survival time, this PubChem deposit counts one and a half times the control or more as active, and values a quarter to a half above the control carry no call in these data; other NCI protocols may use other cut-offs.

As to `Nc1nc(N)c2nc(CNc3ccc(C(=O)NC(CCC(=O)O)C(=O)O)cc3)cnc2n1` (configuration not stated), where the note is “dose: 0.4 mg/kg/injection, vehicle: other”, the T/C is 126 % of control.

Turning to `CCN(CCNc1ccc(C)c2sc3cc(Cl)ccc3c(=O)c12)CC(C)O` (configuration not stated), the survivor count is reported as 6 of 6 (dose: 250.0 mg/kg/injection, vehicle: saline) and 5 of 6 (dose: 500.0 mg/kg/injection, vehicle: saline).

With `O=c1cnn(C2OC(CO)C(O)C2O)c(=O)[nH]1` (configuration not stated), the survivor count (dose: 1600.0 mg/kg/injection, vehicle: saline) is 6 of 6.

In the case of `O=C(Nc1ccc(C2=NCCN2)cc1)c1ccc(C(=O)Nc2ccc(C3=NCCN3)cc2)c([N+](=O)[O-])c1`, the T/C under setting [1] is 126 % of control. Besides, the survivor count (dose: 18.0 mg/kg/injection, vehicle: saline) is reported as 6 of 6.

With `Nc1nc(F)nc2c1ncn2C1OC(CO)C(O)C1O` (configuration not stated), under setting [1], the survivor count is listed as 6 of 6.
